Measured values published in US9737602B2, “Carotenoid particles and uses thereof” (IP SCIENCE LIMITED, priority 2011, dated 2017).
At least one structure is not confirmed: it was looked up by name or label, or the drawing left a doubt.

Test: Trial in CHD patients with hypercholesterolaemia: plasma total cholesterol, LDL, HDL
Assay type: in vivo, human
Details: daily 1 capsule; FIGS. 4A to 4C

**Q.** Which “reduction of total and LDL-cholesterol, in words” value does the source give for `CCC(C)(C)C(=O)O[C@H]1C[C@@H](C)C=C2C=C[C@H](C)[C@H](CC[C@@H]3C[C@@H](O)CC(=O)O3)[C@H]21` [Simvastatin] here?
**A.** The value was “clear dose-dependency”.
